Data: US4943562A, “Tetra- and pentapeptides containing the lysyl-arginyl-aspartyl sequence and their applications as medicines, particularly anti-thrombotic medicines” (Institut des Vaisseaux et du Sang, priority 1987, dated 1990)
At least one peptide structure holds a part that was inferred or is arguable (an end, a ring closure or a residue). Ends that are not written are not given here. Peptide text beside a SMILES is read from it.

Sequences of proteins named here, by UniProt entry; tags and fusion partners are left off. Residues count along the entry.
UniProt P05106, 27-788: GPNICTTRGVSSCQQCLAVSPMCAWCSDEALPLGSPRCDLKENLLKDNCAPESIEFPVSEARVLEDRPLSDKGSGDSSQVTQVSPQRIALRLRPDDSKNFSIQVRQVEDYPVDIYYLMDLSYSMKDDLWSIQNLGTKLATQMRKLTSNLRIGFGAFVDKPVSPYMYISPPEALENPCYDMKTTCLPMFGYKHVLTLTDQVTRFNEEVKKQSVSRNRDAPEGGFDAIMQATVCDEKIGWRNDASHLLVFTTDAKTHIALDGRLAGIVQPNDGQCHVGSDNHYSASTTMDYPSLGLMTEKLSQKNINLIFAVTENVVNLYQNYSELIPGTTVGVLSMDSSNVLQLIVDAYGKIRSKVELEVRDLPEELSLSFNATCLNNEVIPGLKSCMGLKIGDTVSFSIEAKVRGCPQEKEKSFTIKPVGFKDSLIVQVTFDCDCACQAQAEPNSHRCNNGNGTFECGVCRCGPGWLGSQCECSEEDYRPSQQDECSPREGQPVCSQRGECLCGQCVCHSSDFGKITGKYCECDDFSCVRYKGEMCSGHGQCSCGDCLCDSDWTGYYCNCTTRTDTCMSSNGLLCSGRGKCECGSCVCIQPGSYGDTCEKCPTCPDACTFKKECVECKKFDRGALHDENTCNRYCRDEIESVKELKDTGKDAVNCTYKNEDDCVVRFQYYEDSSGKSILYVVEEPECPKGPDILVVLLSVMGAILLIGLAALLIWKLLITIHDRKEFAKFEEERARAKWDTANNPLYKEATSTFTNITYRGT
UniProt P08514, 32-887 limits assumed: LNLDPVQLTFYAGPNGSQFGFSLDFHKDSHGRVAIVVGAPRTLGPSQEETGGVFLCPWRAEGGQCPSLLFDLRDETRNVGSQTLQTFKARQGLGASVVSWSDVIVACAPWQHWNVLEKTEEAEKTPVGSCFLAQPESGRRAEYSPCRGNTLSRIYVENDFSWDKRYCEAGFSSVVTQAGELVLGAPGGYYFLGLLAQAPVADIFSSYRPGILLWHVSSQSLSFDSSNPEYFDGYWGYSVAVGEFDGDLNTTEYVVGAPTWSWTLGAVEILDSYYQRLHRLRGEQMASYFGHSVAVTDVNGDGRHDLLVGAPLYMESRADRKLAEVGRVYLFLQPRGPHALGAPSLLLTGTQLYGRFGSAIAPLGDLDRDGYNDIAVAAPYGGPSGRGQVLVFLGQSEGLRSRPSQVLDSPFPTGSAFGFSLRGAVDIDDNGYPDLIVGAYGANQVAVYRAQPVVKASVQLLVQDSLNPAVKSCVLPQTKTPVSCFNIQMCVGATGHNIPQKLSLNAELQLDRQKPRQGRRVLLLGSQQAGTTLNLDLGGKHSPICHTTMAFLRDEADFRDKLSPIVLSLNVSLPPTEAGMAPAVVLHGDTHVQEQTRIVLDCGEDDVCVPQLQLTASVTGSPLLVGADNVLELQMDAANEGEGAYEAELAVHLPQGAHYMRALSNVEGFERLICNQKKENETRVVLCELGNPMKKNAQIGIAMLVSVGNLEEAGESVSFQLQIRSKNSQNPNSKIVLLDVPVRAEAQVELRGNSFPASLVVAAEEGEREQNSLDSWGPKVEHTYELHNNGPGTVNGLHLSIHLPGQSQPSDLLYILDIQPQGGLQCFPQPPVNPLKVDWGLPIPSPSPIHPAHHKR
UniProt P08514, 891-1039 limits assumed: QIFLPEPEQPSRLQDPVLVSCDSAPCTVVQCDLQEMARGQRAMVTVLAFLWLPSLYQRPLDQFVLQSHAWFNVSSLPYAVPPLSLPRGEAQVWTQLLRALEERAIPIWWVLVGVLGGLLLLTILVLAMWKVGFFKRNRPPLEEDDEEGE
UniProt P07359, 17-652: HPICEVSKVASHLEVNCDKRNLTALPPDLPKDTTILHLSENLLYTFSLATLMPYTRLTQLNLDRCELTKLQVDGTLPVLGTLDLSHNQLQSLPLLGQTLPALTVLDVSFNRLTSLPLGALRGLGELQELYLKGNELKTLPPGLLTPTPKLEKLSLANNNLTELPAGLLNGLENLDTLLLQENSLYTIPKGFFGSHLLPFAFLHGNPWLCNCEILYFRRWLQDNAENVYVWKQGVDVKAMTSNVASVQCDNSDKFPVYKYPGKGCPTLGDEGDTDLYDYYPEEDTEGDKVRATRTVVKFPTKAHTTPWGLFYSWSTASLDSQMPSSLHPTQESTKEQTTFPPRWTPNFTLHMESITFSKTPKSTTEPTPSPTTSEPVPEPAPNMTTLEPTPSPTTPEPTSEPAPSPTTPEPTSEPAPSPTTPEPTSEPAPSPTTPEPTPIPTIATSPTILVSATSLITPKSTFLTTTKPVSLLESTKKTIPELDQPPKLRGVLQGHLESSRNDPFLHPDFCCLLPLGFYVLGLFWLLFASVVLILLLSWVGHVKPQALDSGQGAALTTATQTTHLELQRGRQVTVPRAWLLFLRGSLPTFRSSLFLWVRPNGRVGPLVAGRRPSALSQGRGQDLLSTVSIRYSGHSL

Columns and labels:
intravascular thrombus [1] = assay: experimental thrombosis: intravascular thrombus induced by a specific lesion of the arterial wall, rat; type: in vivo
Description: Experimental work on thrombosis carried out on two different animal species (rat and guineapig) have shown that the peptides according to the invention, in particular the peptides of the general formula […] (II), viz. particularly peptide […] (peptide 1) and peptide […] The type of thrombus which is thus induced takes into account the participation of the blood platelets against which the peptide exerts its activity but also the reactivity of the injured vascular wall. […] In the same experimental thrombosis system, when a peptide according to the invention is used, particularly a peptide of the formula […]

human platelets [2] = assay: ADP induced platelet aggregation in vitro; type: cell-based; details: for Platelet aggregation inhibition in %: ADP induced, in vitro, 1000 μM of each peptide
human platelets [3] = assay: ADP induced fibrinogen binding onto platelets; details: 1 mM concentration of peptide
GP IIb-IIIa complex = target: T1, GP IIb-IIIa complex (Homo sapiens, UniProt P05106+P08514); assay: binding of monoclonal antibodies AP2 and P2 onto platelets, indirect immunoperoxidase method
T1 construct: endogenous in cells; host or cells: human platelets, ADP-stimulated

[4] = target: T2, human Ib platelet glycoprotein (Homo sapiens, UniProt P07359); assay: binding of monoclonal antibody SZ2 onto platelets
T2 construct: SZ2 directed against the human Ib platelet glycoprotein; endogenous in cells; host or cells: human platelets

[5] = target: T3, human IIIa platelet glycoprotein (Homo sapiens, UniProt P05106); assay: binding of monoclonal antibody SZ21 onto platelets
T3 construct: SZ21 directed against the human IIIa platelet glycoprotein; endogenous in cells; host or cells: human platelets

[6] = target: T4, human IIb platelet glycoprotein (Homo sapiens, UniProt P08514); assay: binding of monoclonal antibody SZ22 onto platelets
T4 construct: SZ22 directed against the human IIb platelet glycoprotein; endogenous in cells; host or cells: human platelets

[7] = test system: human megacaryocytes (MK); assay: binding of monoclonal antibody P2 onto megacaryocytes after stimulation by ADP
P43 = assay: phosphorylation of P43 in the presence of thrombin; type: cell-based
intravascular thrombus [8] = assay: experimental thrombosis: intravascular thrombus induced by a specific lesion of the arterial wall, guineapig; type: in vivo; details: direct intravenous injection
Description: Experimental work on thrombosis carried out on two different animal species (rat and guineapig) have shown that the peptides according to the invention, in particular the peptides of the general formula […] (II), viz. particularly peptide […] (peptide 1) and peptide […] […] The type of thrombus which is thus induced takes into account the participation of the blood platelets against which the peptide exerts its activity but also the reactivity of the injured vascular wall.

[9] = injection of 500 μg/kg, peptide alone
[10] = after stimulation by ADP (15 or 20 μM)

Compound: N=C(N)NCCC[C@H](N)C(=O)NCC(=O)N[C@@H](CC(=O)O)C(=O)N[C@@H](CO)C(=O)O [Arg-Gly-Asp-Ser, reference compound]
- duration of the inhibition of the formation of thrombi (intravascular thrombus [1]; [9]): a few minutes only
- inhibition of the formation of thrombi (intravascular thrombus [1]; [9]): very nominal inhibition only

Compound: N=C(N)NCCC[C@H](NC(=O)[C@@H](N)CCCCN)C(=O)N[C@@H](CC(=O)O)C(=O)N[C@@H](CO)C(=O)O [peptide 1, Lys-Arg-Asp-Ser] (H-KRDS-OH)
- inhibition of platelet aggregation (human platelets [2]; 1 mM concentration of peptide): well-nigh completely inhibits
- Platelet aggregation inhibition in % (human platelets [2]): 90%
- inhibition of ADP induced fibrinogen binding (human platelets [3]): well-nigh completely inhibits
- inhibition of the binding of monoclonal antibodies directed against the GP IIb-IIIa complex (AP2 and P2) (GP IIb-IIIa complex; 450 or preferably 900 μM, platelets stimulated by ADP): inhibits
- inhibition of the binding of AP2 and P2 on non-stimulated platelets (GP IIb-IIIa complex; non-stimulated platelets): not on the non-stimulated platelets
- binding of P2 compared with AP2: extent of inhibition (GP IIb-IIIa complex; platelets stimulated by ADP): the binding of P2 is considerably more affected than the one of AP2
- inhibition of binding of monoclonal antibody SZ2 [4]: not inhibited
- inhibition of binding of monoclonal antibody SZ21 [5]: not inhibited
- inhibition of binding of monoclonal antibody SZ22 [6]: not inhibited
- percentage of MK's exhibiting an inhibition among mature MK's versus MK's in the course of maturation ([7]; P<0.001): significantly higher
- inhibition of the binding of P2 onto megacaryocytes [7, 10]: inhibits the binding of P2 onto part of the megacaryocytes
- percentage of the total population of MK's exhibiting an inhibition of the binding of P2 [7, 10]: 21%
- effect on the phosphorylation of P43 (P43): does not modify
- anti-thrombotic activity (intravascular thrombus [1]; direct intravenous injection): exert an anti-thrombotic activity
- inhibition of the formation of thrombi (intravascular thrombus [1]; injection of 250 μg/kg, peptide alone): does not generate any inhibition
- anti-thrombotic activity (intravascular thrombus [8]): exert an anti-thrombotic activity

Compound: N=C(N)NCCC[C@H](NC(=O)[C@@H](N)CCCCN)C(=O)N[C@@H](CC(=O)O)C(=O)N[C@@H](Cc1ccc(O)cc1)C(=O)O [peptide 2, Lys-Arg-Asp-Tyr] (H-KRDY-OH)
- Platelet aggregation inhibition in % (human platelets [2]): 30%

Compound: Ac-KRDSK [peptide 4, Ac-Lys-Arg-Asp-Ser-Lys]
- Platelet aggregation inhibition in % (human platelets [2]): 67%

Compound: KRDSY [peptide 5, Lys-Arg-Asp-Ser-Tyr]
- Platelet aggregation inhibition in % (human platelets [2]): 60%
